Experimental data reported in the supplement of paper PMC6411743.
± gives the standard deviation of the averaged measurements. The list shows a part of the results, in another mix than the full data.

Sequences of proteins named here, by UniProt entry; tags and fusion partners are left off. A change or cut given only in a name is not applied to a line headed by its entry.
UniProt Q96HA8: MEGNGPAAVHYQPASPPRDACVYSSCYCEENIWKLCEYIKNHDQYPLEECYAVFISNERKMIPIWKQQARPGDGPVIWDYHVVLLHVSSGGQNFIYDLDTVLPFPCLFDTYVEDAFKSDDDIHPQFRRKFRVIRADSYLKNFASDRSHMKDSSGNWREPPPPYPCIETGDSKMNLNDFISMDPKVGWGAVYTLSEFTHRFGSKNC
UniProt Q96GA3: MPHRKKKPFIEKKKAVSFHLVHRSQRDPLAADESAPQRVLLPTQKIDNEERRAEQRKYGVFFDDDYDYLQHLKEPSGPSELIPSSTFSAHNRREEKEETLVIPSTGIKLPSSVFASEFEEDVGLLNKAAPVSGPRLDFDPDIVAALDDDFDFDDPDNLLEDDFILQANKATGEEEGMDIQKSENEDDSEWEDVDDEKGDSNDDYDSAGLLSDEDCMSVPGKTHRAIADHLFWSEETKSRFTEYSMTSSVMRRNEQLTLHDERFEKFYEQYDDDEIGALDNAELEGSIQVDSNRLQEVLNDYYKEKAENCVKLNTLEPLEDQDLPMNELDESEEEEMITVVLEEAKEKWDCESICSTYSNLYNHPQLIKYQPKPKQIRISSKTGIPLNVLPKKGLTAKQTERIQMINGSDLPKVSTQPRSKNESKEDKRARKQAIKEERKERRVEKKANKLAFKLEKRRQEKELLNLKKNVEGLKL
UniProt Q96LA8, whole entry, looked up: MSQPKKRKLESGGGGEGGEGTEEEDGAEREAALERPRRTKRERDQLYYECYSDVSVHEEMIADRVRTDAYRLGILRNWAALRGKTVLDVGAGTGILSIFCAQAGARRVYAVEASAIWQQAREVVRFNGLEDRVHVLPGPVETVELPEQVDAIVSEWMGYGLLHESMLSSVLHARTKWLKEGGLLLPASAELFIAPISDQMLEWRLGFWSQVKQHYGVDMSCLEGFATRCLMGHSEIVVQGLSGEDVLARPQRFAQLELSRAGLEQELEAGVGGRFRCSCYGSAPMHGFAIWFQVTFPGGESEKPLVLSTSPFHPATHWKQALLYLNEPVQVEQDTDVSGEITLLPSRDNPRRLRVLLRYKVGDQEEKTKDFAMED
UniProt Q96AD5: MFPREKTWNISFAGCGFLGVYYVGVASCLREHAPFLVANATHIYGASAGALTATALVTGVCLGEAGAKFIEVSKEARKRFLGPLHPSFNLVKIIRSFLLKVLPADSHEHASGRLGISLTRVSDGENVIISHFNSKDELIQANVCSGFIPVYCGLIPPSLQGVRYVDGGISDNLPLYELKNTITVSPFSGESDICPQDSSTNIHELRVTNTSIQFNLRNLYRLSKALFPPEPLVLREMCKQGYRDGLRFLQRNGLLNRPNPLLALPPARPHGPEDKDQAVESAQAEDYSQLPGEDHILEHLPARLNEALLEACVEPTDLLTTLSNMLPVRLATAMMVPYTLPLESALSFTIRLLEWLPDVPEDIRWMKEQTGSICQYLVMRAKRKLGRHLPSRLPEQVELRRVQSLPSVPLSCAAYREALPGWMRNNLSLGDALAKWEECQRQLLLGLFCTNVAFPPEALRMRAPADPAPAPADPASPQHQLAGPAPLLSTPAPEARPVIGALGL
UniProt Q96GG9: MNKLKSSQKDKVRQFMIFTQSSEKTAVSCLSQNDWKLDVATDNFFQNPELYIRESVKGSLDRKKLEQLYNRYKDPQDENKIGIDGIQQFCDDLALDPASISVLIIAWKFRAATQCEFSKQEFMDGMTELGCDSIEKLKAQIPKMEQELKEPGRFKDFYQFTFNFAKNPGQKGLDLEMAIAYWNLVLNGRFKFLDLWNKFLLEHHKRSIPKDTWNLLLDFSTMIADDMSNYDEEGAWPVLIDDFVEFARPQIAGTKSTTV
UniProt Q96IJ6: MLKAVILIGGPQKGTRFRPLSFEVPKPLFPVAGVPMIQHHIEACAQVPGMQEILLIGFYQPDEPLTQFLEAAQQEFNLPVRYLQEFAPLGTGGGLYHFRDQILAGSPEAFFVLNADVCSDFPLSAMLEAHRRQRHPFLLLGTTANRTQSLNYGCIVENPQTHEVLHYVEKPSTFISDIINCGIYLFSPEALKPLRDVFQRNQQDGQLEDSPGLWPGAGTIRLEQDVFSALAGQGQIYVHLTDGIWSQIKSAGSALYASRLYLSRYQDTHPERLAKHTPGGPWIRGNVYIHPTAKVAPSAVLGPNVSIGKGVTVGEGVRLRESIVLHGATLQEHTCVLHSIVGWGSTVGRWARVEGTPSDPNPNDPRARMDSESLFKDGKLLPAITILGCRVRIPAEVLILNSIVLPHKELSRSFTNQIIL
UniProt Q92979: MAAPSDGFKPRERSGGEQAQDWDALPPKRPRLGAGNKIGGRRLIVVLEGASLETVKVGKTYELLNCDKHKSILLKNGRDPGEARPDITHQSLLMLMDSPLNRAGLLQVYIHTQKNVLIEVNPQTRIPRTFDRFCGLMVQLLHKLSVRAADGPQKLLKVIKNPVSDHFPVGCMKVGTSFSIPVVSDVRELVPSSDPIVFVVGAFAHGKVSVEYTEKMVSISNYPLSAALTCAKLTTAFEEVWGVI
UniProt Q96IV0: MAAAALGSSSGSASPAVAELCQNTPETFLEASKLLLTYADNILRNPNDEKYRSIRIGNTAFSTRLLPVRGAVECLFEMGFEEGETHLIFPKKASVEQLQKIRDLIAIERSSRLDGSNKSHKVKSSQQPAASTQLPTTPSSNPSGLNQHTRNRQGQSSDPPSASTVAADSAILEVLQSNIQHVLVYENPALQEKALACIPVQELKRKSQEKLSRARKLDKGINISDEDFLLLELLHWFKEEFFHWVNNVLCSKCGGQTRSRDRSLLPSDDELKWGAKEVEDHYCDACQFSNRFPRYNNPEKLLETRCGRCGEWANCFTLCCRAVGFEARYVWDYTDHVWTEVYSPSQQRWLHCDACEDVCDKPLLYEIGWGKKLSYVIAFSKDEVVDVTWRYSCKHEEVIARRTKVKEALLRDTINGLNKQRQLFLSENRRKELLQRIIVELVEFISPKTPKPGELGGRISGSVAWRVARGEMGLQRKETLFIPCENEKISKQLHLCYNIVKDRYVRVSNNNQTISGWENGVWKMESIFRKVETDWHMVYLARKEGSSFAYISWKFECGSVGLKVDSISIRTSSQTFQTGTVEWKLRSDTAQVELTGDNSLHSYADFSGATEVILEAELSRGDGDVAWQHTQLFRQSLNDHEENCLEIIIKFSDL
UniProt Q96PZ0: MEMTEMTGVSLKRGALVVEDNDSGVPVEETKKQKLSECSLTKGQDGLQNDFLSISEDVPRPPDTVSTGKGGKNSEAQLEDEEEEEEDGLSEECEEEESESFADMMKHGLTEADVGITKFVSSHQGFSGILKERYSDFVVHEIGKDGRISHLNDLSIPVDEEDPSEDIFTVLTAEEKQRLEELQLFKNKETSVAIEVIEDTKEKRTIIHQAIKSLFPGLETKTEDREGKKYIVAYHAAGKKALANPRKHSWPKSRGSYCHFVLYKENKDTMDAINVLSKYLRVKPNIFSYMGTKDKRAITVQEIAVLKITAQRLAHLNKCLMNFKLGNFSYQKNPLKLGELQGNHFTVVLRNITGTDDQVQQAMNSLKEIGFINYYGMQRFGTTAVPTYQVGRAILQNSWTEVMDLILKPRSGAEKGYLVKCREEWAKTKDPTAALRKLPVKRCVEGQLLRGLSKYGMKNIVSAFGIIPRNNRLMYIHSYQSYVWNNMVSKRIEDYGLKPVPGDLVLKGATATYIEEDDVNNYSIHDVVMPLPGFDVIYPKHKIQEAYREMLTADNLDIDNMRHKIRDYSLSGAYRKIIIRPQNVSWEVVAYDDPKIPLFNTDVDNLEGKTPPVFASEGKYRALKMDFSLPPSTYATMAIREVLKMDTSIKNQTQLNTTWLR
UniProt Q96N46: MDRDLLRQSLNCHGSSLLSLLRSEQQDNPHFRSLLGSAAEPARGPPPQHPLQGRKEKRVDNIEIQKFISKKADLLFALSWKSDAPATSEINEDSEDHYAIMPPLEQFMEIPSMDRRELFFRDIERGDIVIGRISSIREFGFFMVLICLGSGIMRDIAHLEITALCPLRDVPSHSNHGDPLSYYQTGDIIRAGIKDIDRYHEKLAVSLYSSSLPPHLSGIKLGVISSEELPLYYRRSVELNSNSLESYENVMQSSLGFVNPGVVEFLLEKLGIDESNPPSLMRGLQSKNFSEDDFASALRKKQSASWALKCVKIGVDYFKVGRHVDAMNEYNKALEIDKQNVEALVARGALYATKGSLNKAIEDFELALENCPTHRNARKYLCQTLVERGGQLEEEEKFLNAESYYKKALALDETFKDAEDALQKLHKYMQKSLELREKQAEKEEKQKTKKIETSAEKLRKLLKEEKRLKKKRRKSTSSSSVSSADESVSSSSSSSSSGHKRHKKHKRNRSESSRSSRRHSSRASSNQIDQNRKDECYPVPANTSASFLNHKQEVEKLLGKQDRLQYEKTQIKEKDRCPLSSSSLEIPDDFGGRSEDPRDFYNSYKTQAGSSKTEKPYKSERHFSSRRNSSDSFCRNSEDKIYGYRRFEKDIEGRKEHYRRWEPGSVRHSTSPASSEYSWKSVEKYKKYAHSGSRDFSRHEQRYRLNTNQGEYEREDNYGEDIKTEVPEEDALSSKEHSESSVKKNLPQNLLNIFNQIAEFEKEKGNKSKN
UniProt Q96IZ0: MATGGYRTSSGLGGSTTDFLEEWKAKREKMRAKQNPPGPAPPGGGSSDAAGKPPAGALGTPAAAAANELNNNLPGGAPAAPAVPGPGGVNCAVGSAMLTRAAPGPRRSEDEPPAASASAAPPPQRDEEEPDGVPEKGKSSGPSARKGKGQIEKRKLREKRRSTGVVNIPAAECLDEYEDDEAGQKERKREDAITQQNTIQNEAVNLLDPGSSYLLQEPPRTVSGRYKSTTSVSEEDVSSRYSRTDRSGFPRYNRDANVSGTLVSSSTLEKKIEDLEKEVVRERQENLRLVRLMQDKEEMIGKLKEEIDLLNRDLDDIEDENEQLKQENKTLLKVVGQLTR
UniProt Q96PU5: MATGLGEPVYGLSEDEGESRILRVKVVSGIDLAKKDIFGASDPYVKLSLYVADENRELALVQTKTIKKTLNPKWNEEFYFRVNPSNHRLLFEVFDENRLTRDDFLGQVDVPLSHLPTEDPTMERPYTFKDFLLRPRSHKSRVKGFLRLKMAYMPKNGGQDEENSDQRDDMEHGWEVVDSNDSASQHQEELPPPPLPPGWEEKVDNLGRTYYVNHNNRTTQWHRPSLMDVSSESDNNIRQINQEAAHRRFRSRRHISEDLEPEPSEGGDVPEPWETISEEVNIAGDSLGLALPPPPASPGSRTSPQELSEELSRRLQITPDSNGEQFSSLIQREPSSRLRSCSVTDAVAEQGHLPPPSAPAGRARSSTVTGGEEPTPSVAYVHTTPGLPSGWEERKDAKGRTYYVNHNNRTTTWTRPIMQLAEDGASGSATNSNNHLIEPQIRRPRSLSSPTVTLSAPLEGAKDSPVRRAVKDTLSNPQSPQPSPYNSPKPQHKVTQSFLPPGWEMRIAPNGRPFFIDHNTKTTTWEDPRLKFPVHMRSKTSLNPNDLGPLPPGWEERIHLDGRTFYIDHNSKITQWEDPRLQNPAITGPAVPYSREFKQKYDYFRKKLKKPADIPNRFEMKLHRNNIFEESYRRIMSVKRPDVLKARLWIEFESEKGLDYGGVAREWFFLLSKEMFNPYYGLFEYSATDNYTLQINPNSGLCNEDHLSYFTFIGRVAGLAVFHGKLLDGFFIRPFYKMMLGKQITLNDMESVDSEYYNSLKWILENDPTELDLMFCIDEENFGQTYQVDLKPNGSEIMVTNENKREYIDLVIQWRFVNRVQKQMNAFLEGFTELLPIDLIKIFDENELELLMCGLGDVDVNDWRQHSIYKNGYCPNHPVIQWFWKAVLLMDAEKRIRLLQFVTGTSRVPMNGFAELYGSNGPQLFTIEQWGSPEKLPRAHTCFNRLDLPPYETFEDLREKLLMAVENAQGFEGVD
UniProt Q96K58: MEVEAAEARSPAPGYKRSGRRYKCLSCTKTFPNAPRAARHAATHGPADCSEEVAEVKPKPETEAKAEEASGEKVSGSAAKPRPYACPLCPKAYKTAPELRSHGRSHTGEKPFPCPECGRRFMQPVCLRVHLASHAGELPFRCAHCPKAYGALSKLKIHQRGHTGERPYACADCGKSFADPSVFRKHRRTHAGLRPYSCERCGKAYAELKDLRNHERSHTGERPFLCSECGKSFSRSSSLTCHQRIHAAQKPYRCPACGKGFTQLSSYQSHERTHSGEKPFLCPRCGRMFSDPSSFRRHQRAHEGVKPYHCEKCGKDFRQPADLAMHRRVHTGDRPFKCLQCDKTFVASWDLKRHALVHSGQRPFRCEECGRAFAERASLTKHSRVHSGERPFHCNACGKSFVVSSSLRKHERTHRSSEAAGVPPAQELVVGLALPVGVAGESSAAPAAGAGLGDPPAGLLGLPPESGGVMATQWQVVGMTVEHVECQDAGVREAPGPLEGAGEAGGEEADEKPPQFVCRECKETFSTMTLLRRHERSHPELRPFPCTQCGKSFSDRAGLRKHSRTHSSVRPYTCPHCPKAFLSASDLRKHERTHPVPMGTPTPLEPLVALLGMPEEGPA

Compound: Nc1ncnc2c1ncn2[C@@H]1O[C@H](COP(=O)(O)OP(=O)(O)NP(=O)(O)O)[C@@H](O)[C@H]1O [adenylyl imidodiphosphate]
Assay: NP40-soluble protein abundance relative to vehicle (solubility fold change) (ratio); higher = more soluble protein in presence of AMP-PNP
Outline: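 Each value is a fold change relative to the detergent-processed vehicle, calculated per replicate from vsn-normalised intensities. Jurkat crude lysate received eight concentrations (0.1 to 10 mM) for 10 min at room temperature and 3 min at 37 °C, then was solubilised in 0.8% NP40 with benzonase (60 min, 4 °C). The ultracentrifuged supernatant was TMT-labelled and run by LC-MS/MS in three independent experiments.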

Target	NP40-soluble protein abundance (concentration: 1mM)	NP40-soluble protein abundance (concentration: 2mM)	NP40-soluble protein abundance (concentration: 4mM)	NP40-soluble protein abundance (concentration: 6mM)	NP40-soluble protein abundance (concentration: 8mM)	NP40-soluble protein abundance (concentration: 10mM)
UniProt Q96HA8 and related entries	0.979 ± 0.014	1.03 ± 0.043	1.03 ± 0.012	1.02 ± 0.029	1.03 ± 0.029	1.04 ± 0.045
YIPF6 (UniProt Q96EC8)	0.986 ± 0.031	1.01 ± 0.044	0.997 ± 0.045	1.03 ± 0.1	1.02 ± 0.046	1.04 ± 0.035
LTV1 (UniProt Q96GA3)	1.01 ± 0.04	1.11 ± 0.046	1.02 ± 0.063	1.01 ± 0.052	0.998 ± 0.041	1.01 ± 0.048
UniProt Q96LA8 and related entries	0.97892 ± 0.00094	0.922 ± 0.067	0.978 ± 0.042	0.978 ± 0.021	1.007 ± 0.0015	0.976 ± 0.022
KCTD12 (UniProt Q96CX2)	1.05 ± 0.034	1.09 ± 0.042	1.07 ± 0.035	1.04 ± 0.011	1.06 ± 0.035	1.07 ± 0.049
PEX13 (UniProt Q92968)	0.932 ± 0.1	0.877 ± 0.017	1.02 ± 0.16	1.11 ± 0.066	1.12 ± 0.15	1.11 ± 0.12
UniProt Q96AC1 and related entries	1 ± 0.052	0.962 ± 0.018	0.967 ± 0.036	0.973 ± 0.028	1.01 ± 0.035	0.97 ± 0.029
RFK (UniProt Q969G6)	1 ± 0.033	0.9725 ± 0.0077	0.953 ± 0.034	0.978 ± 0.021	0.956 ± 0.016	0.935 ± 0.033
DHTKD1 (UniProt Q96HY7)	0.99 ± 0.026	0.939 ± 0.013	0.967 ± 0.045	0.93 ± 0.044	0.931 ± 0.033	0.899 ± 0.059
UniProt Q93100 and related entries	0.963 ± 0.032	0.884 ± 0.12	0.938 ± 0.037	0.858 ± 0.082	0.882 ± 0.092	0.846 ± 0.13
VCPIP1 (UniProt Q96JH7)	1.02 ± 0.022	0.99 ± 0.05	0.993 ± 0.024	0.967 ± 0.038	0.946 ± 0.024	0.948 ± 0.043
PNPLA2 (UniProt Q96AD5)	0.9996 ± 0.0052	0.969 ± 0.013	0.991 ± 0.013	0.963 ± 0.043	1 ± 0.011	0.967 ± 0.013
UniProt Q96P48 and related entries	0.968 ± 0.022	0.896 ± 0.14	0.983 ± 0.07	0.903 ± 0.059	0.955 ± 0.066	0.882 ± 0.062
UniProt Q96Q15 and related entries	0.967 ± 0.037	0.96 ± 0.03	1 ± 0.037	0.978 ± 0.048	0.968 ± 0.024	0.998 ± 0.082
SUCLG2 (UniProt Q96I99)	1.03 ± 0.014	1 ± 0.019	1.01 ± 0.03	1.02 ± 0.043	1.01 ± 0.029	1.02 ± 0.04
DCUN1D1 (UniProt Q96GG9)	0.996 ± 0.02	0.99 ± 0.034	0.999 ± 0.031	1.03 ± 0.0087	1.01 ± 0.015	1 ± 0.015
NTAN1 (UniProt Q96AB6)	0.9918 ± 0.0098	1.004 ± 0.0048	1.03 ± 0.029	0.983 ± 0.033	0.985 ± 0.012	0.981 ± 0.015
UniProt Q96IJ6 and related entries	0.9729 ± 0.0088	0.978 ± 0.036	0.991 ± 0.014	1 ± 0.012	0.996 ± 0.03	0.993 ± 0.033
UniProt Q96AQ8	0.998 ± 0.034	0.992 ± 0.044	0.983 ± 0.046	0.997 ± 0.039	0.9953 ± 0.0099	0.97 ± 0.059
UniProt Q92974 and related entries	0.989 ± 0.015	0.964 ± 0.041	0.9747 ± 0.0076	0.942 ± 0.02	0.951 ± 0.01	0.945 ± 0.027

Target	NP40-soluble protein abundance (concentration: 1mM)	NP40-soluble protein abundance (concentration: 2mM)	NP40-soluble protein abundance (concentration: 4mM)	NP40-soluble protein abundance (concentration: 6mM)	NP40-soluble protein abundance (concentration: 8mM)	NP40-soluble protein abundance (concentration: 10mM)
TBRG4 (UniProt Q969Z0)	0.984 ± 0.03	0.953 ± 0.033	0.955 ± 0.012	0.959 ± 0.028	0.941 ± 0.022	0.935 ± 0.054
EMG1 (UniProt Q92979)	1.01 ± 0.03	1 ± 0.014	1.12 ± 0.087	1.19 ± 0.071	1.24 ± 0.096	1.26 ± 0.1
UniProt Q96IV0 and related entries	0.956 ± 0.026	0.908 ± 0.027	0.932 ± 0.038	0.9012 ± 0.0066	0.913 ± 0.022	0.886 ± 0.024
UniProt Q96JG8 and related entries	1.01 ± 0.04	0.992 ± 0.053	0.991 ± 0.034	0.988 ± 0.044	1 ± 0.027	0.977 ± 0.031
PUS7 (UniProt Q96PZ0)	1.03 ± 0.035	1.002 ± 0.0077	1.04 ± 0.019	1.008 ± 0.009	1.01 ± 0.015	1.01 ± 0.028
FAM122A (UniProt Q96E09)	1.023 ± 0.0051	1.02 ± 0.047	1.0112 ± 0.00041	0.9747 ± 0.0087	1 ± 0.045	0.985 ± 0.039
UniProt Q96N46 and related entries	1.02 ± 0.019	1.04 ± 0.045	1.04 ± 0.022	1.0622 ± 0.00014	1.05 ± 0.017	1.07 ± 0.014
ISL2 (UniProt Q96A47)	1.01 ± 0.024	1 ± 0.029	1.02 ± 0.03	0.991 ± 0.017	0.99 ± 0.047	0.974 ± 0.028
UniProt Q96DC7 and related entries	1 ± 0.03	1 ± 0.033	0.986 ± 0.02	1.02 ± 0.03	1.01 ± 0.044	0.996 ± 0.029
TESC (UniProt Q96BS2)	0.98 ± 0.036	0.994 ± 0.012	0.997 ± 0.031	0.957 ± 0.017	0.962 ± 0.027	0.921 ± 0.029
CCDC47 (UniProt Q96A33)	1.04 ± 0.03	1.01 ± 0.019	1.02 ± 0.041	1.02 ± 0.027	1.04 ± 0.049	1.02 ± 0.044
EDC3 (UniProt Q96F86)	1.09 ± 0.025	1.03 ± 0.064	1.03 ± 0.05	1 ± 0.043	0.995 ± 0.043	0.999 ± 0.052
UniProt Q969U7 and related entries	0.961 ± 0.027	0.982 ± 0.042	0.974 ± 0.062	0.951 ± 0.033	0.934 ± 0.043	0.913 ± 0.069
UniProt Q96AG3 and related entries	0.995 ± 0.024	0.9971 ± 0.0097	0.99 ± 0.035	1 ± 0.023	0.991 ± 0.041	1.018 ± 0.0096
PAWR (UniProt Q96IZ0)	1.006 ± 0.0082	1.07 ± 0.074	0.97 ± 0.034	0.991 ± 0.018	0.966 ± 0.011	0.971 ± 0.041
UniProt Q96JC1 and related entries	0.985 ± 0.018	0.932 ± 0.049	1.01 ± 0.013	0.974 ± 0.056	1 ± 0.017	0.975 ± 0.02
UniProt Q96JM7 and related entries	0.998 ± 0.037	1.02 ± 0.049	1.04 ± 0.011	1 ± 0.013	0.9861 ± 0.00078	0.965 ± 0.017
UniProt Q96K76 and related entries	0.9994 ± 0.0059	0.965 ± 0.044	0.967 ± 0.018	0.946 ± 0.03	0.935 ± 0.031	0.921 ± 0.036
UniProt Q96EM0	0.9928 ± 0.0018	1.022 ± 0.0049	0.999 ± 0.024	1.01 ± 0.026	1.0296 ± 0.0006	1.02 ± 0.021
PPP1R10 (UniProt Q96QC0)	1.05 ± 0.023	1.09 ± 0.016	1.08 ± 0.017	1.06 ± 0.059	1.06 ± 0.048	1.06 ± 0.034

A section of the results above, for reference:
Target	NP40-soluble protein abundance (concentration: 1mM)	NP40-soluble protein abundance (concentration: 2mM)	NP40-soluble protein abundance (concentration: 4mM)	NP40-soluble protein abundance (concentration: 6mM)	NP40-soluble protein abundance (concentration: 8mM)	NP40-soluble protein abundance (concentration: 10mM)
EMG1 (UniProt Q92979)	1.01 ± 0.03	1 ± 0.014	1.12 ± 0.087	1.19 ± 0.071	1.24 ± 0.096	1.26 ± 0.1
UniProt Q96IV0 and related entries	0.956 ± 0.026	0.908 ± 0.027	0.932 ± 0.038	0.9012 ± 0.0066	0.913 ± 0.022	0.886 ± 0.024
UniProt Q96JG8 and related entries	1.01 ± 0.04	0.992 ± 0.053	0.991 ± 0.034	0.988 ± 0.044	1 ± 0.027	0.977 ± 0.031
PUS7 (UniProt Q96PZ0)	1.03 ± 0.035	1.002 ± 0.0077	1.04 ± 0.019	1.008 ± 0.009	1.01 ± 0.015	1.01 ± 0.028
FAM122A (UniProt Q96E09)	1.023 ± 0.0051	1.02 ± 0.047	1.0112 ± 0.00041	0.9747 ± 0.0087	1 ± 0.045	0.985 ± 0.039

(further entries)

Target	NP40-soluble protein abundance (concentration: 1mM)	NP40-soluble protein abundance (concentration: 2mM)	NP40-soluble protein abundance (concentration: 4mM)	NP40-soluble protein abundance (concentration: 6mM)	NP40-soluble protein abundance (concentration: 8mM)	NP40-soluble protein abundance (concentration: 10mM)
UniProt Q96BN2	1.04 ± 0.033	1.04 ± 0.087	1.03 ± 0.093	1.08 ± 0.055	1.06 ± 0.051	1.07 ± 0.12
UniProt Q96HN2-2|Q96HN2	1.03 ± 0.029	1.048 ± 0.0069	1.01 ± 0.018	1.01 ± 0.04	0.971 ± 0.025	0.985 ± 0.014
OPTN (UniProt Q96CV9)	1.01 ± 0.023	1.05 ± 0.049	1.02 ± 0.02	0.978 ± 0.026	0.963 ± 0.025	0.965 ± 0.039
UniProt Q969E2 and related entries	1.06 ± 0.019	1 ± 0.018	1.06 ± 0.015	1.02 ± 0.022	0.9629 ± 0.0036	0.973 ± 0.027
UniProt Q96LT9 and related entries	1.009 ± 0.0063	1.062 ± 0.0089	1.016 ± 0.0023	1.08 ± 0.012	1.089 ± 0.0011	1.1 ± 0.023
UniProt Q96KB5 and related entries	0.996 ± 0.013	0.945 ± 0.049	0.982 ± 0.022	0.987 ± 0.02	0.986 ± 0.024	0.981 ± 0.012
MRPS24 (UniProt Q96EL2)	0.986 ± 0.081	0.927 ± 0.055	0.99 ± 0.055	0.979 ± 0.024	0.989 ± 0.053	0.965 ± 0.069
UniProt Q96PU5 and related entries	1.05 ± 0.032	1.07 ± 0.045	1.08 ± 0.039	1.05 ± 0.034	1.03 ± 0.059	1.03 ± 0.074
UniProt Q96BD5 and related entries	1.02 ± 0.05	1.02 ± 0.016	1.05 ± 0.035	1.06 ± 0.016	1.07 ± 0.037	1.1 ± 0.029
UniProt Q96DF8	1.01 ± 0.017	1.07 ± 0.067	1.02 ± 0.045	0.989 ± 0.015	0.977 ± 0.025	1 ± 0.038
KTI12 (UniProt Q96EK9)	0.998 ± 0.025	1.08 ± 0.08	1 ± 0.052	0.9826 ± 0.0053	0.987 ± 0.044	0.988 ± 0.015
UniProt Q969Y2 and related entries	0.9695 ± 0.0083	0.959 ± 0.046	0.965 ± 0.023	0.964 ± 0.035	0.968 ± 0.017	0.9655 ± 0.0079
RMI2 (UniProt Q96E14)	0.995 ± 0.023	0.998 ± 0.031	0.98 ± 0.037	1 ± 0.035	1 ± 0.068	0.993 ± 0.094
UniProt Q96E11 and related entries	0.973 ± 0.013	0.983 ± 0.024	0.943 ± 0.045	0.93 ± 0.013	0.903 ± 0.023	0.911 ± 0.035
UniProt Q96AQ6 and related entries	1.035 ± 0.0056	1.09 ± 0.066	1.06 ± 0.015	1.03 ± 0.068	1.01 ± 0.013	1.0401 ± 0.001
ZNF512B (UniProt Q96KM6)	1.01 ± 0.017	1.09 ± 0.06	1.1 ± 0.061	1.13 ± 0.044	1.16 ± 0.05	1.17 ± 0.064
UniProt Q96CS2	0.947 ± 0.07	1.04 ± 0.027	0.934 ± 0.079	0.875 ± 0.046	0.884 ± 0.014	0.829 ± 0.043
UniProt Q96K58 and related entries	1.1 ± 0.045	1.19 ± 0.044	1.11 ± 0.041	1.06 ± 0.065	1.03 ± 0.038	1.11 ± 0.061
UniProt Q96JG6	0.991 ± 0.034	0.988 ± 0.019	0.987 ± 0.014	0.9941 ± 0.0023	0.9741 ± 0.0084	0.978 ± 0.026
UniProt Q96EK5	1.01 ± 0.033	0.965 ± 0.043	0.992 ± 0.039	0.999 ± 0.081	1.03 ± 0.066	0.97 ± 0.073
